Values from PubChem BioAssay AID1159584 (Peter MacCallum Cancer Centre, 2016).

Aim: 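Genes that CDH1-null MCF10A cells selectively depend on to survive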 (primary screen)
System: human MCF10A breast epithelial cells, parental and CDH1-null
Reagents: siRNA against human genes
Measured: 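Cell viability by CellTiter-Glo ATP luminescence, each line scaled to the mean of mock wells across plates, then CDH1-null over parental ratio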
Direction: CDH1-null / parental viability ratio: higher = CDH1-null cells survive relatively better than parental; CDH1-null viability vs mock: higher = more viable CDH1-null cells
The whole screen tested about 18,000 reagents; this is a random part of them. Further read-outs or replicates are left out here. The record does not give: the amount of reagent, the time to read-out.

gene	PubChem SID	CDH1-null / parental viability ratio	CDH1-null viability vs mock (fraction of mock)
PIK3AP1 (GeneID 118788)	SID152147752	1.01	0.82
OPN1MW (GeneID 2652)	SID134311118	1.39	0.79
ABLIM1 (GeneID 3983)	SID152147905	0.91	0.6
COX8A (GeneID 1351)	SID135622202	1.01	1.03
HSF2 (GeneID 3298)	SID134316189	1.24	1.12
ATN1 (GeneID 1822)	SID152151566	0.84	0.62
ARHGAP33 (GeneID 115703)	SID135621724	0.98	0.62
SPMIP6 (GeneID 84688)	SID134321411	1.31	0.76
PGM5 (GeneID 5239)	SID135621591	1.01	0.87
PLEKHO1 (GeneID 51177)	SID152155940	0.93	0.53
ATP5MC1 (GeneID 516)	SID152154869	0.96	0.75
ZNF189 (GeneID 7743)	SID134324938	1.15	0.92
TMEM178A (GeneID 130733)	SID135623170	0.99	0.8
PREX1 (GeneID 57580)	SID135621881	0.84	0.59
CGRRF1 (GeneID 10668)	SID152155403	0.79	0.62
QARS1 (GeneID 5859)	SID134313752	0.81	0.47
CFAP20 (GeneID 29105)	SID134324012	0.86	0.74
UQCRFS1 (GeneID 7386)	SID135623914	0.91	0.87
SFTPD (GeneID 6441)	SID152156431	1.19	0.74
MDN1 (GeneID 23195)	SID135621838	0.97	0.64
TAS2R4 (GeneID 50832)	SID134317339	0.81	0.52
TNFRSF9 (GeneID 3604)	SID135621504	0.68	0.4
C4orf51 (GeneID 646603)	SID135625514	0.89	0.5
RPUSD1 (GeneID 113000)	SID152148772	0.92	0.94
ZNF711 (GeneID 7552)	SID152156205	0.81	0.6
SUMO1 (GeneID 7341)	SID135623065	0.84	0.52
NDC1 (GeneID 55706)	SID152150277	0.85	0.68
HES2 (GeneID 54626)	SID135624679	1.14	1.05
SERPINA5 (GeneID 5104)	SID152154727	0.99	0.85
CXCR6 (GeneID 10663)	SID134310921	1.23	0.85
MRPS33 (GeneID 51650)	SID134317188	0.96	1.27
CBX8 (GeneID 57332)	SID134313232	0.99	0.95
RGS9 (GeneID 8787)	SID152156472	0.91	0.89
ZNF701 (GeneID 55762)	SID134324002	1.15	0.78
E2F1 (GeneID 1869)	SID56478616	1.14	0.89
KLK10 (GeneID 5655)	SID152152833	1.27	0.79
KCNJ13 (GeneID 3769)	SID152153799	1.09	0.83
SH3BP5 (GeneID 9467)	SID135623858	1.08	0.7
CEP19 (GeneID 84984)	SID134319103	1.06	1
P2RX7 (GeneID 5027)	SID134310058	1.33	1.04
TAS2R43 (GeneID 259289)	SID135623395	1.09	0.7
ZC3H3 (GeneID 23144)	SID152152198	0.84	0.57
CD53 (GeneID 963)	SID152155785	0.79	0.68
C1QTNF6 (GeneID 114904)	SID134322986	1.19	0.96
TSPAN33 (GeneID 340348)	SID134322181	0.94	1.02
CDK8 (GeneID 1024)	SID56478602	1.06	0.94
SLC45A3 (GeneID 85414)	SID152146854	1.3	0.7
GNS (GeneID 2799)	SID135621529	1.12	1.23
TRIAP1 (GeneID 51499)	SID134324450	0.78	0.64
NLRP13 (GeneID 126204)	SID152153174	1.04	1.08
PPP6R1 (GeneID 22870)	SID152150991	0.93	0.67
SLC38A4 (GeneID 55089)	SID152155097	1.05	0.86
KIF21B (GeneID 23046)	SID152147132	1.09	0.96
CADM1 (GeneID 23705)	SID152156749	0.84	0.46
EPN2 (GeneID 22905)	SID135620876	1.2	0.98
INKA2 (GeneID 55924)	SID134321857	0.81	0.44
SQLE (GeneID 6713)	SID152153318	1	0.7
LIX1 (GeneID 167410)	SID134322235	0.8	0.88
SUGT1 (GeneID 10910)	SID134317127	1.2	0.48
TSPAN14 (GeneID 81619)	SID152152675	0.76	0.5
RAVER2 (GeneID 55225)	SID152147400	1.16	1.02
PRKAR2B (GeneID 5577)	SID56479179	0.9	0.77
POC5 (GeneID 134359)	SID152147088	0.7	0.6
TMEM121B (GeneID 27439)	SID152152285	1.11	0.69
EIF3M (GeneID 10480)	SID152147764	1.11	0.6
TAOK2 (GeneID 9344)	SID57288958	1.07	0.81
NOC4L (GeneID 79050)	SID135622713	1.1	0.79
CMTM1 (GeneID 113540)	SID135622002	1.11	0.73
DRAP1 (GeneID 10589)	SID134313815	0.92	0.7
RRP1B (GeneID 23076)	SID135624987	1.02	0.94
PRSS48 (GeneID 345062)	SID152154582	1	0.62
AHSG (GeneID 197)	SID152150611	0.89	1.02
SYT10 (GeneID 341359)	SID152149397	1.06	1.02
C3orf22 (GeneID 152065)	SID134320077	1.09	0.96
CYP3A43 (GeneID 64816)	SID135621737	0.91	0.69
TMEM255B (GeneID 348013)	SID135623634	1.14	0.64
PFKL (GeneID 5211)	SID56479167	0.96	0.9
TLE4 (GeneID 7091)	SID134323135	0.93	0.76
ZXDA (GeneID 7789)	SID135622401	0.98	0.88
NLGN1 (GeneID 22871)	SID134314853	0.93	0.76
IL19 (GeneID 29949)	SID152150563	1.45	0.96
CD247 (GeneID 919)	SID134310343	1.1	0.8
PEX1 (GeneID 5189)	SID152152245	1.07	0.77
HPR (GeneID 3250)	SID134313215	1.1	0.78
TPGS2 (GeneID 25941)	SID152155089	0.89	0.56
SLC33A1 (GeneID 9197)	SID134312579	0.98	0.84
DLX4 (GeneID 1748)	SID135622165	1.26	0.88

Just “CDH1-null / parental viability ratio” (11 entries from above):
ABLIM1 (GeneID 3983) [SID152147905] = 0.91
COX8A (GeneID 1351) [SID135622202] = 1.01
HSF2 (GeneID 3298) [SID134316189] = 1.24
ATN1 (GeneID 1822) [SID152151566] = 0.84
ARHGAP33 (GeneID 115703) [SID135621724] = 0.98
SPMIP6 (GeneID 84688) [SID134321411] = 1.31
PGM5 (GeneID 5239) [SID135621591] = 1.01
PLEKHO1 (GeneID 51177) [SID152155940] = 0.93
ATP5MC1 (GeneID 516) [SID152154869] = 0.96
ZNF189 (GeneID 7743) [SID134324938] = 1.15
TMEM178A (GeneID 130733) [SID135623170] = 0.99
